Reference: PubChem BioAssay AID1224830 (NIAID, 2016)
Assay: 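Host factors that control LPS-induced TNF expression in human macrophages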 (primary screen). Cells: human THP-1 monocytic leukaemia cells, TNF dual-luciferase reporter clone, PMA-differentiated to macrophage-like cells. Reagents: siRNA pool against human genes, 50 nM. Time to read-out: LPS for 4 h, given about 3 days after siRNA transfection. Treatment: bacterial LPS (TLR4 ligand), 10 ng/ml. Read-out: 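Ratio of firefly to renilla light, scaled to the plate median and expressed as a robust z-score per replicate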. Scale: TNF reporter robust z-score: higher = stronger TNF reporter response to LPS. Active means: 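Each well counts as active if its z-score is over 2.8 or under -1.5; controls are left without a call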.
Here is an unselected part of about 18,000 reagents tested. Of all reagents, about 2,900 (16%) were called active. 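Calls are made per well; low scores hint the gene aids the LPS response, high scores that it dampens it.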 Repeated entries: four replicate wells of each siRNA pool.

CEP76 (centrosomal protein 76) | TNF reporter robust z-score: -0.33; outcome: inactive
CEP76 (centrosomal protein 76) | TNF reporter robust z-score: -0.54; outcome: inactive
CEP76 (centrosomal protein 76) | TNF reporter robust z-score: -0.24; outcome: inactive
ERH (ERH mRNA splicing and mitosis factor) | TNF reporter robust z-score: -1.53; outcome: active
ERH (ERH mRNA splicing and mitosis factor) | TNF reporter robust z-score: -1.4; outcome: inactive
ERH (ERH mRNA splicing and mitosis factor) | TNF reporter robust z-score: -1.73; outcome: active
ERH (ERH mRNA splicing and mitosis factor) | TNF reporter robust z-score: -0.73; outcome: inactive
TRAPPC5 (trafficking protein particle complex subunit 5) | TNF reporter robust z-score: -1.02; outcome: inactive
TRAPPC5 (trafficking protein particle complex subunit 5) | TNF reporter robust z-score: -0.3; outcome: inactive
TRAPPC5 (trafficking protein particle complex subunit 5) | TNF reporter robust z-score: -1.27; outcome: inactive
TRAPPC5 (trafficking protein particle complex subunit 5) | TNF reporter robust z-score: -0.28; outcome: inactive
PEX11G (peroxisomal biogenesis factor 11 gamma) | TNF reporter robust z-score: -0.14; outcome: inactive
PEX11G (peroxisomal biogenesis factor 11 gamma) | TNF reporter robust z-score: -0.54; outcome: inactive
PEX11G (peroxisomal biogenesis factor 11 gamma) | TNF reporter robust z-score: -0.46; outcome: inactive
PEX11G (peroxisomal biogenesis factor 11 gamma) | TNF reporter robust z-score: -0.1; outcome: inactive
NRN1L (neuritin 1 like) | TNF reporter robust z-score: -1.2; outcome: inactive
NRN1L (neuritin 1 like) | TNF reporter robust z-score: -0.17; outcome: inactive
NRN1L (neuritin 1 like) | TNF reporter robust z-score: 0.31; outcome: inactive
NRN1L (neuritin 1 like) | TNF reporter robust z-score: 0.9; outcome: inactive
GPR119 (G protein-coupled receptor 119) | TNF reporter robust z-score: 0.9; outcome: inactive
GPR119 (G protein-coupled receptor 119) | TNF reporter robust z-score: 0.95; outcome: inactive
GPR119 (G protein-coupled receptor 119) | TNF reporter robust z-score: 0.62; outcome: inactive
EXOC4 (exocyst complex component 4) | TNF reporter robust z-score: 0.82; outcome: inactive
EXOC4 (exocyst complex component 4) | TNF reporter robust z-score: 1.55; outcome: inactive
EXOC4 (exocyst complex component 4) | TNF reporter robust z-score: 0.81; outcome: inactive
EXOC4 (exocyst complex component 4) | TNF reporter robust z-score: 0.6; outcome: inactive
PMCH (pro-melanin concentrating hormone) | TNF reporter robust z-score: 1.08; outcome: inactive
PMCH (pro-melanin concentrating hormone) | TNF reporter robust z-score: 1.78; outcome: inactive
PMCH (pro-melanin concentrating hormone) | TNF reporter robust z-score: 0.98; outcome: inactive
PMCH (pro-melanin concentrating hormone) | TNF reporter robust z-score: 1.94; outcome: inactive
MYL3 (myosin light chain 3) | TNF reporter robust z-score: -0.82; outcome: inactive
MYL3 (myosin light chain 3) | TNF reporter robust z-score: -1.02; outcome: inactive
MYL3 (myosin light chain 3) | TNF reporter robust z-score: 0.04; outcome: inactive
MYL3 (myosin light chain 3) | TNF reporter robust z-score: 1.93; outcome: inactive
BAGE2 (BAGE family member 2 (pseudogene)) | TNF reporter robust z-score: -0.9; outcome: inactive
BAGE2 (BAGE family member 2 (pseudogene)) | TNF reporter robust z-score: 0.16; outcome: inactive
BAGE2 (BAGE family member 2 (pseudogene)) | TNF reporter robust z-score: 0.26; outcome: inactive
BAGE2 (BAGE family member 2 (pseudogene)) | TNF reporter robust z-score: -0.91; outcome: inactive
NEURL4 (neuralized E3 ubiquitin protein ligase 4) | TNF reporter robust z-score: -0.92; outcome: inactive
NEURL4 (neuralized E3 ubiquitin protein ligase 4) | TNF reporter robust z-score: -1.01; outcome: inactive
NEURL4 (neuralized E3 ubiquitin protein ligase 4) | TNF reporter robust z-score: 0.01; outcome: inactive
NEURL4 (neuralized E3 ubiquitin protein ligase 4) | TNF reporter robust z-score: -1.13; outcome: inactive
MED15 (mediator complex subunit 15) | TNF reporter robust z-score: -0.34; outcome: inactive
MED15 (mediator complex subunit 15) | TNF reporter robust z-score: -0.24; outcome: inactive
MED15 (mediator complex subunit 15) | TNF reporter robust z-score: 0.05; outcome: inactive
MED15 (mediator complex subunit 15) | TNF reporter robust z-score: 0.01; outcome: inactive
ZNF692 (zinc finger protein 692) | TNF reporter robust z-score: -0.55; outcome: inactive
ZNF692 (zinc finger protein 692) | TNF reporter robust z-score: -0.07; outcome: inactive
ZNF692 (zinc finger protein 692) | TNF reporter robust z-score: -0.17; outcome: inactive
